From US7033773B1, “Screening assays for G protein coupled receptor agonists and antagonists” (The General Hospital Corporation, priority 1997, dated 2006)
For at least one compound, name, drawing or mass did not settle the structure.

Test system: human PTH/PTHrP receptor
Experiment: Cytosolic free calcium (fura-2) in LLC-PK1 cells expressing human PTHR
Settings: other experiments, hPTHR-expressing LLC-PK1 cells

`C=C[C@@]1(C)CC(=O)[C@]2(O)[C@@]3(C)[C@@H](O)CCC(C)(C)[C@@H]3[C@H](O)[C@H](OC(C)=O)[C@@]2(C)O1` [forskolin] was tested, and the “calcium responses to PKA/PKC activators” value was “failed to elicit calcium responses”.
